In paper doi:10.1101/2020.06.22.164400:
Results are given in words; binding and its absence hold for the method and conditions named. In cells and extracts the contact can be indirect. Some results given as binding are weak or reduced against the parent protein; the word gives no strength. Where a sequence is shown, tags or fusion partners need not be part of it.

What was measured:
[1] = target: T1, HA-tagged Fwe (Flower) from a genomic rescue transgene (Drosophila) (UniProt Q95T12); test: co-IP
T1 sequence: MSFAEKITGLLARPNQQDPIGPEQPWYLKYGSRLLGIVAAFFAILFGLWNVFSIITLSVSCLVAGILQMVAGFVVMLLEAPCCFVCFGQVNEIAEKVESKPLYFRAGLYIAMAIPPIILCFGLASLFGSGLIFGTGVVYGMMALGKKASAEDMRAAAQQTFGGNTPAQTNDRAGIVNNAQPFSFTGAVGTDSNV

[2] = target: T2, mCherry-tagged Fwe (Flower) from a genomic rescue transgene (Drosophila) (UniProt Q95T12); test: co-IP
T2 sequence: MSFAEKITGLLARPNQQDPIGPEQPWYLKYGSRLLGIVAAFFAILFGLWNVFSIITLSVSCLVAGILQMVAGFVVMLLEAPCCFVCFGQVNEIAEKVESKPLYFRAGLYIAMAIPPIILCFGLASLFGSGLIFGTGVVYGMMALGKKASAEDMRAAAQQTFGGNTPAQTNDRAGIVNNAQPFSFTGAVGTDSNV

B1: α subunit of the AP-2 complex (AP-2α) (protein, UniProt P91926 1-940)
chain: MAPVRGDGMRGLAVFISDIRNCKSKEAEVKRINKELANIRSKFKGDKTLDGYQKKKYVCKLLFIFLLGHDIDFGHMEAVNLLSSNKYSEKQIGYLFISVLVNTNSDLIRLIIQSIKNDLQSRNPVHVNLALQCIANIGSRDMAESFSNEIPKLLVSGDTMDVVKQSAALCLLRLFRSSPDIIPGGEWTSRIIHLLNDQHMGVVTAATSLIDALVKRNPDEYKGCVNLAVSRLSRIVTASYTDLQDYTYYFVPAPWLSVKLLRLLQNYNPVTEEAGVRARLNETLETILNKAQEPPKSKKVQHSNAKNAVLFEAINLIIHSDSEPNLLVRACNQLGQFLSNRETNLRYLALESMCHLATSEFSHEEVKKHQEVVILSMKMEKDVSVRQMAVDLLYAMCDRGNAEEIVQEMLNYLETADYSIREEMVLKVAILAEKYATDYTWYVDVILNLIRIAGDYVSEEVWYRVIQIVINREEVQGYAAKTVFEALQAPACHENMVKVGGYILGEFGNLIAGDSRSAPLVQFKLLHSKYHLCSPMTRALLLSTYIKFINLFPEIRTNIQDVFRQHSNLRSADAELQQRASEYLQLSIVASTDVLATVLEEMPSFPERESSILAVLKKKKPGRVPENEIRESKSPAPLTSAAQNNALVNNSHSKLNNSNANTDLLGLSTPPSNNIGSGSNSNSTLIDVLGDMYGSNSNNNSSAVYNTKKFLFKNNGVLFENEMLQIGVKSEFRQNLGRLGLFYGNKTQVPLTNFNPVLQWSAEDALKLNVQMKVVEPTLEAGAQIQQLLTAECIEDYADAPTIEISFRYNGTQQKFSIKLPLSVNKFFEPTEMNAESFFARWKNLSGEQQRSQKVFKAAQPLDLPGARNKLMGFGMQLLDQVDPNPDNMVCAGIIHTQSQQVGCLMRLEPNKQAQMFRLTVRASKETVTREICDLLTDQF
In the case of B1, the binding [1] is reported as “binds” and the binding [2] is reported as “binds”.
